US20250144242A1

The chains behind the UniProt entries cited, without tags or fusion partners. Where a name states a change or a piece, a line headed by the entry shows the natural chain unless it says otherwise. Residues count along the entry.
UniProt P49755: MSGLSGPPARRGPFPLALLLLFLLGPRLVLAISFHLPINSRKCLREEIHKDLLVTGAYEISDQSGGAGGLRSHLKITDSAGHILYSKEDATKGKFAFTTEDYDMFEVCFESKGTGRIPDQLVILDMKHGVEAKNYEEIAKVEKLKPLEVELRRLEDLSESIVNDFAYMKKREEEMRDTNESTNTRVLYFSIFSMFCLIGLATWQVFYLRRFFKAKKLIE
UniProt P01344, residues 25-180: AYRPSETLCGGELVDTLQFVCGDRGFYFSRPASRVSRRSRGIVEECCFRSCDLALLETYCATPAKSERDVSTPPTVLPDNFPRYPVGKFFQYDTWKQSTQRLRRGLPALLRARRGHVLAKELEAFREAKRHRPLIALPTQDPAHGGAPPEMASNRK

Target: FLAG-tagged TMED10^1-130 (human) (UniProt P49755)
Experiment: co-immunoprecipitation on anti-FLAG beads, DSP-crosslinked HEK293T lysates, immunoblot

binding: binds
Substance: 3×HA-tagged IGF2 (IGF2-HA), human (from UniProt P01344 25-180) (ligand)

Results are given in words; binding and its absence hold for the method and conditions named. Binding seen in cells or lysates may run through a third protein. A result given as binding can be weak or reduced; the word gives no strength.
